US6388122B1, “Tryptase inhibitor and novel guanidino derivatives” (Ono Pharmaceutical Co., Ltd., priority 1996, dated 2002)
At least one compound was matched to its structure with a doubt left.

Target: T1, Tryptase purified from the human lungs
T1 construct: Tryptase was purified from the human lungs in accordance with the method of T. J. Smithetal. described in J. Biol. Chem., 259, 11046 (1984)
Assay: Tryptase inhibitory activity (Boc-Phe-Ser-Arg-MCA fluorescence)
Format: biochemical
Details: human lung tryptase, pH 7.5, 37° C., 5 minutes incubation, substrate Boc-Phe-Ser-Arg-MCA
Protocol: Tryptase was purified from the human lungs in accordance with the method of T. J. Smithetal. described in J. Biol. Chem., 259, 11046 (1984). The enzyme purified in the concentration of 25.7 U/ml was diluted 10 times with 100 mM Tris/hydrochloride buffer (pH 7.5) at use. The enzyme solution prepared above (5 μl) was mixed with 100 mM Tris/hydrochloride buffer (pH 7.5, 500 μl) and the aqueous solution of the subject compound in various concentrations or water (5 μl), and the resulting mixture was incubated at 37° C. for 5 minutes. To the reaction mixture was added 20 mM Boc-Phe-Ser-Arg-MCA (2.5 μl), and elevation in fluorescence for a minute was determined at Ex=370 nm, Em=460 nm. The elevation in fluorescence in the absence of the subject compound was defined as 100% to obtain the percentage (%) in the existence of the sample compound and calculate the value of IC50.

`C=CCN(CC(=O)OCC)C(=O)CCc1ccc(C(=O)Oc2ccc(C(=N)N)cc2)cc1` [Acetate of compound 20, p-(p-amidinophenoxycarbonyl)phenylpropionic acid N-allyl-N-ethoxycarbonylmethylamide] showed an IC50 of 6.83 nM.
